Measured values reported in patent US9193719B2, “1,2,4-triazol-5-ones and analogs exhibiting anti-cancer and anti-proliferative activities” (Deciphera Pharmaceuticals, LLC, priority 2013, dated 2015).
Some results were stated once for a whole list of compounds, not compound by compound.

test system: c-FMS; experiment: cFOS mRNA production in a c-FMS mouse spleen pharmacodynamic model; assay type: in vivo; settings: female DBA/1 mice, M-CSF stimulated, out to 8 h post 30 mg/kg single oral dose

Row | Compound | inhibition of cFOS mRNA levels [%]
1 | Cc1nc(-n2nc(C(C)(C)C)[nH]c2=O)ccc1Oc1ccnc(-c2cnn(C)c2)c1 [Example 7, 3-(tert-butyl)-1-(6-methyl-5-((2-(1-methyl-1H-pyrazol-4-yl)pyridin-4-yl)oxy)pyridin-2-yl)-1H-1,2,4-triazol-5(4H)-one] | ≥ 70
2 | Cc1cc(-c2cc(Oc3ccc(-n4nc(C(C)(C)C)[nH]c4=O)nc3C)ccn2)ccn1 [Example 9, 3-(tert-butyl)-1-(6-methyl-5-((2′-methyl-[2,4′-bipyridin]-4-yl)oxy)pyridin-2-yl)-1H-1,2,4-triazol-5(4H)-one] | ≥ 70
3 | CCC(C)(C)c1nn(-c2ccc(Oc3ccnc(-c4cnn(C)c4)c3)c(C)n2)c(=O)[nH]1 [Example 25, 1-(6-methyl-5-((2-(1-methyl-1H-pyrazol-4-yl)pyridin-4-yl)oxy)pyridin-2-yl)-3-(tert-pentyl)-1H-1,2,4-triazol-5(4H)-one] | ≥ 70
4 | Cc1nc(-n2cc(C(C)(C)C)[nH]c2=O)ccc1Oc1ccnc(-c2cnn(C)c2)c1 [Example 48, 4-(tert-butyl)-1-(6-methyl-5-((2-(1-methyl-1H-pyrazol-4-yl)pyridin-4-yl)oxy)pyridin-2-yl)-1H-imidazol-2(3H)-one] | ≥ 70
